From the supplement of paper PMC12067093, “Discovery and optimisation of a covalent ligand for TRIM25 and its application to targeted protein ubiquitination” (Chemical Science, 2025)
The list shows a part of the results.

The chains behind the UniProt entries cited, without tags or fusion partners. Where a name states a change or a piece, a line headed by the entry shows the natural chain unless it says otherwise.
UniProt P49917: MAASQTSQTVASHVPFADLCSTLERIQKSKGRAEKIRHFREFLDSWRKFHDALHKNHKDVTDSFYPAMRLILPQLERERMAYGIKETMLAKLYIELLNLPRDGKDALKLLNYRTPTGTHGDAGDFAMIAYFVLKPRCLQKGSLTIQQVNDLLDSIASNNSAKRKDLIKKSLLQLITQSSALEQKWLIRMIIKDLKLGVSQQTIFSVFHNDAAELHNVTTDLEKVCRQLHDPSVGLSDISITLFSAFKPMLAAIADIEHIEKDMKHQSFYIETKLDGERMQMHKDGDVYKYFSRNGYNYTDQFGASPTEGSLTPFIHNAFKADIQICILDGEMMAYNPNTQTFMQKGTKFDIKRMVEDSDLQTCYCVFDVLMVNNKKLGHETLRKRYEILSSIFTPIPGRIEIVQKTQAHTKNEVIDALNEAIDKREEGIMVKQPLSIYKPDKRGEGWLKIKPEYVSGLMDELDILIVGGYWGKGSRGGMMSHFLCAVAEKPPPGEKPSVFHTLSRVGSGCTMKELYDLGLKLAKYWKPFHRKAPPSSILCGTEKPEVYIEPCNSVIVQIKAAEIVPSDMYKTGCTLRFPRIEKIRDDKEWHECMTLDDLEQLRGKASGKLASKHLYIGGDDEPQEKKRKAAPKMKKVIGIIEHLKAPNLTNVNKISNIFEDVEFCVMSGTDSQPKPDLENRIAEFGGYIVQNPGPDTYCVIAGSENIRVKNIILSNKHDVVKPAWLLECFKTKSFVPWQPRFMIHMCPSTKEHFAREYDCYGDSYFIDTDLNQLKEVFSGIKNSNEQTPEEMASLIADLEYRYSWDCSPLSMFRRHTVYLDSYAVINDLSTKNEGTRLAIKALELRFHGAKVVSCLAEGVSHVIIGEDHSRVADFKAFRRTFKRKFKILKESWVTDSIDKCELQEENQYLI
UniProt Q8N1G4: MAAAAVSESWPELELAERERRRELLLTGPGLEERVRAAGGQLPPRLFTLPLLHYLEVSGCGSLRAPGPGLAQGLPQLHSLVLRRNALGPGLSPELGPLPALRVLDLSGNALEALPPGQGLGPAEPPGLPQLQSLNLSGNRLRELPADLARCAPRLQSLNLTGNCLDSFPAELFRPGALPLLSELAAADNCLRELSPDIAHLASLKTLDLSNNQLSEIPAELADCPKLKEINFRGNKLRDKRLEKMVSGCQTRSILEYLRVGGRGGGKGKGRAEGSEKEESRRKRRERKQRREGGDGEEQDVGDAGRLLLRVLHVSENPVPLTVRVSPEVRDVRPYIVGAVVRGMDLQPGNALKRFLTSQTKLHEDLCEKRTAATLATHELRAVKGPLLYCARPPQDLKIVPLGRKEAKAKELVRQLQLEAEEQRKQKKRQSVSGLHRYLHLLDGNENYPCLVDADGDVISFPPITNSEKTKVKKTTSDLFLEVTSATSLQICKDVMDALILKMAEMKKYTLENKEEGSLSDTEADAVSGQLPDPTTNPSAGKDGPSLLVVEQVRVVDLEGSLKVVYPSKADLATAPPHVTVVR
UniProt Q96II8: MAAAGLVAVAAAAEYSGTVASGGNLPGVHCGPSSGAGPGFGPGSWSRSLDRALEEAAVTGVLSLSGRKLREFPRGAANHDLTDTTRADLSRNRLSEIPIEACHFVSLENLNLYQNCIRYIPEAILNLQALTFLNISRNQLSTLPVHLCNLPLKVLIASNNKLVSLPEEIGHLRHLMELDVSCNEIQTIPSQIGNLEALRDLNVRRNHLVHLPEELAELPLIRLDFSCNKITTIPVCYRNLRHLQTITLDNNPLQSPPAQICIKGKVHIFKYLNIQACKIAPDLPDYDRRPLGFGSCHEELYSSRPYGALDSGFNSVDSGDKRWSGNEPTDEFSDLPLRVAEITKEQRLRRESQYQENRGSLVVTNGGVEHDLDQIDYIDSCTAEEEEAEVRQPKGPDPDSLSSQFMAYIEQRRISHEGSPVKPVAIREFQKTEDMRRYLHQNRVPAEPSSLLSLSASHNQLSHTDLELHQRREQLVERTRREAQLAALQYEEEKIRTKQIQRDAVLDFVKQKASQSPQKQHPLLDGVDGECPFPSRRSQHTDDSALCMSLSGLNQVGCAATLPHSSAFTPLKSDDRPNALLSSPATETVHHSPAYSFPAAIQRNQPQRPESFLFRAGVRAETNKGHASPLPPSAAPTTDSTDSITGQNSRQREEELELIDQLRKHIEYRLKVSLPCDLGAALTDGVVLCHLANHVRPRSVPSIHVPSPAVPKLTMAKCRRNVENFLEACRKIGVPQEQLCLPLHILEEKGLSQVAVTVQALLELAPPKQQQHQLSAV
UniProt P48059, whole entry, looked up: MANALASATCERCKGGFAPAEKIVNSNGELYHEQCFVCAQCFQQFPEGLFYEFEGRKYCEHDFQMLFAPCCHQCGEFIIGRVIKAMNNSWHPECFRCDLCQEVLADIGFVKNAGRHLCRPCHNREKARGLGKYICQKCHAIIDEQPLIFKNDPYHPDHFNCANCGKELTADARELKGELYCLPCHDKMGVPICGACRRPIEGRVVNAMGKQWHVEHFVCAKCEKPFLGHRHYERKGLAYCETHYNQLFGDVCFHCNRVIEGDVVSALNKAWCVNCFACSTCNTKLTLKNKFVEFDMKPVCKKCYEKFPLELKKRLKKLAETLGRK
UniProt O60711: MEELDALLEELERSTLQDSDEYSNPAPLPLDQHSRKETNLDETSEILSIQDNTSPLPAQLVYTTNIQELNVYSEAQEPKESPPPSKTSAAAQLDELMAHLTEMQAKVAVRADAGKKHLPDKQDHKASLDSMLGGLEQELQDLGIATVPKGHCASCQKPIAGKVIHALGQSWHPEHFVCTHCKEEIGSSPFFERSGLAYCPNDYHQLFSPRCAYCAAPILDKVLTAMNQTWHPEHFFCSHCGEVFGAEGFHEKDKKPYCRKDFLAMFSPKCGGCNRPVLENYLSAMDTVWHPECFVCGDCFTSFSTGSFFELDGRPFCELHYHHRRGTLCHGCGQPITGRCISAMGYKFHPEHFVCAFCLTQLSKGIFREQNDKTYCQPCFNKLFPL
UniProt P09382, whole entry, looked up: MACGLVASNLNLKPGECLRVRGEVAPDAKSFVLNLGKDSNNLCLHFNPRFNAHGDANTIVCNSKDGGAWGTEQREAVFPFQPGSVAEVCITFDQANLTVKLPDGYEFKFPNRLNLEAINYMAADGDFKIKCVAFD
UniProt Q9UGP4: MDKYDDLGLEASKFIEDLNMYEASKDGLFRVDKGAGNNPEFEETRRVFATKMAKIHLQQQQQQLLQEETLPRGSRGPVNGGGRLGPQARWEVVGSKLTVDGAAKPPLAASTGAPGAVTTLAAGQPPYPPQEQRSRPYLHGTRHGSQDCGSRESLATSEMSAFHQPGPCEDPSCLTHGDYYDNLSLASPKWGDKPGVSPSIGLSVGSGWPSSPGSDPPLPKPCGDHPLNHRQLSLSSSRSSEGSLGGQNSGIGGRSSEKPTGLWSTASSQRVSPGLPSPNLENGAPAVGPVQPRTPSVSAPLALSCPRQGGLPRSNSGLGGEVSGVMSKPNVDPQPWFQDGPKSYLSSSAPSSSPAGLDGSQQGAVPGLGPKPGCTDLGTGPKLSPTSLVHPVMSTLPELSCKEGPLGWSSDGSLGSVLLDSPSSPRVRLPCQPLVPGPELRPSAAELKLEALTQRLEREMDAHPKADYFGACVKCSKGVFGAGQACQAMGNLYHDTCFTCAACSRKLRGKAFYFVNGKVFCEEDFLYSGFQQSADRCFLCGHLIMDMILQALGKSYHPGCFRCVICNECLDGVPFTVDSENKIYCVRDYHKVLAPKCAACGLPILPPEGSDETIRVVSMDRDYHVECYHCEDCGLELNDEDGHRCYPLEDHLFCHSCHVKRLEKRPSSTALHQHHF
UniProt P18858, whole entry, looked up: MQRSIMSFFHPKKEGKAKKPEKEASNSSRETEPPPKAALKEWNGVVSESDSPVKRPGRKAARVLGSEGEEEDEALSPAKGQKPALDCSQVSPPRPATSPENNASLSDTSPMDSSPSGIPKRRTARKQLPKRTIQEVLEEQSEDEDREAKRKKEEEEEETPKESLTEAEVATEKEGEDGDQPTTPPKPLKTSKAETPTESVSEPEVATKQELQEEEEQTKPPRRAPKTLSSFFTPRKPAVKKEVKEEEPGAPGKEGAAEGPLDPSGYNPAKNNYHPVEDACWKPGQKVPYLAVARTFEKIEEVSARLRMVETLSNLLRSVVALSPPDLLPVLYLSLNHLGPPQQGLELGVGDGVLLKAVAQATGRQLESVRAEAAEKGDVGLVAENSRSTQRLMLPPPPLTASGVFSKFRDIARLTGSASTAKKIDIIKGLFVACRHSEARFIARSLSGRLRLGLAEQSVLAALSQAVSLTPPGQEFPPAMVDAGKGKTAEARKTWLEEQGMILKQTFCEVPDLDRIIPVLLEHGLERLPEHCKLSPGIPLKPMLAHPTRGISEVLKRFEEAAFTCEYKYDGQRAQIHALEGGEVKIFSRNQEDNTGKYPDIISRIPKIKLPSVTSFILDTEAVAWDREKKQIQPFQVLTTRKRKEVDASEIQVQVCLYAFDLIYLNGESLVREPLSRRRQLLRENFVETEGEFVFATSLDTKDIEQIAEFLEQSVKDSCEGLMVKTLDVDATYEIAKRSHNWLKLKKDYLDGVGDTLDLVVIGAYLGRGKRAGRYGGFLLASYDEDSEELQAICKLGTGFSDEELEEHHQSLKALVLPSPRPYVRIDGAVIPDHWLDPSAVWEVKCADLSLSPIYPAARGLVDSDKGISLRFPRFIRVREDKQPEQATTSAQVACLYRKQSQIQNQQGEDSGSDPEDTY
UniProt P49916: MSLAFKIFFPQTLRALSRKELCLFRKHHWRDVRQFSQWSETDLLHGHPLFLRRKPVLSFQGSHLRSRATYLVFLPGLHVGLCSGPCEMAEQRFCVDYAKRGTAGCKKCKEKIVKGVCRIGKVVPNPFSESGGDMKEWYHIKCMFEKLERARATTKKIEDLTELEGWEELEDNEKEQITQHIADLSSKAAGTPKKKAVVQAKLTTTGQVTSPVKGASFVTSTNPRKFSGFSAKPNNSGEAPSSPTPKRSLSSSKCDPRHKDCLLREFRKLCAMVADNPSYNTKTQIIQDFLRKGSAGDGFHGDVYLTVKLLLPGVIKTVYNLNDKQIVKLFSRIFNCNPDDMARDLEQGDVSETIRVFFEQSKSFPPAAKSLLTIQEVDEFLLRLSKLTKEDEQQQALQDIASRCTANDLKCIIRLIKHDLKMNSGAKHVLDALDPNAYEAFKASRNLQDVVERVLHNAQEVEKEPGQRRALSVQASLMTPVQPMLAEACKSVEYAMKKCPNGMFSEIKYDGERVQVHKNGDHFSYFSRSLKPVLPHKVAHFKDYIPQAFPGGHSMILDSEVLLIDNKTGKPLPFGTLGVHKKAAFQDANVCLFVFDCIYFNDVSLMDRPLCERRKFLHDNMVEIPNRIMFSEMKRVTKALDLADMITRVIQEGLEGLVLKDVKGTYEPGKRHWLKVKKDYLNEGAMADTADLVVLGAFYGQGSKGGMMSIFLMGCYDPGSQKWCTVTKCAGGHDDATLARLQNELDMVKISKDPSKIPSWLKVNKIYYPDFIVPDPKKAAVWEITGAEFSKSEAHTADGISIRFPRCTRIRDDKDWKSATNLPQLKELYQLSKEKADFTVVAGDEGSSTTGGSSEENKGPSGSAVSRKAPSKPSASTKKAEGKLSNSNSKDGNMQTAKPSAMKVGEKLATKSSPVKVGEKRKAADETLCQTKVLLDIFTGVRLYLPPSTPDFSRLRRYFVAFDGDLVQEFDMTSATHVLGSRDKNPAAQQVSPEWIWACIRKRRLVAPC
UniProt Q32MZ4: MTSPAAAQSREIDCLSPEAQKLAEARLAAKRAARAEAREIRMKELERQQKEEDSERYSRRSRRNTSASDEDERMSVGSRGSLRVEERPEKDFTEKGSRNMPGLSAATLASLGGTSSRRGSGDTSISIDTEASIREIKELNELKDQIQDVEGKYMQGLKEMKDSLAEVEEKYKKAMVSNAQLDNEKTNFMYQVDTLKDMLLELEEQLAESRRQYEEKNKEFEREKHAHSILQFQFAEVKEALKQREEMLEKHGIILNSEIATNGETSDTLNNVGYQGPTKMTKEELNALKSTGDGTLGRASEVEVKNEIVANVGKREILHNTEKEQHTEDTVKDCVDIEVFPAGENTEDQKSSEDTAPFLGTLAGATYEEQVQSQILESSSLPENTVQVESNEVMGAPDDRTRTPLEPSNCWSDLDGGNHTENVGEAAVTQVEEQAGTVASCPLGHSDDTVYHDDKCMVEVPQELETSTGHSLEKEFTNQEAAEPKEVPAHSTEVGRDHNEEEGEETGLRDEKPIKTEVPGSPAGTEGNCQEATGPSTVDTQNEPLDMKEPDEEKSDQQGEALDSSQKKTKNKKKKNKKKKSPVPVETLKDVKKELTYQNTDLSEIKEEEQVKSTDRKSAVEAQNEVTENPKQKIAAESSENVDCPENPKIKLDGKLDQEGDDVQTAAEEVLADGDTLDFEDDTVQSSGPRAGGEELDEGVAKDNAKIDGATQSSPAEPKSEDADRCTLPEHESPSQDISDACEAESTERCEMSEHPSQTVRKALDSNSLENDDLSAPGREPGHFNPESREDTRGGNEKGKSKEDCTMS

Compound: CC1Cc2ccccc2N1C(=O)C1CCCN(C1)C(=O)CCl (mixture of isomers) [TRIM25 ligand 11 (diastereomer mixture)]
Assay: probe-labelled cysteine peptide fold change vs DMSO (competition) (log2 fold change); higher = less target engagement (more negative = stronger competition)
Settings: THP-1, incubation time: 4 h
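Note: competitive chemoproteomic profiling in live THP-1 cells with an iodoacetamide desthiobiotin (IA-DTB) probe, comparing probe-labelled peptide intensities in compound-treated cells against DMSO-treated controls.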

LONP1_P36776_909_RAGVTCIVLPAENK (UniProt P36776)
probe-labelled cysteine peptide fold change (10 µM): 0.213 | probe-labelled cysteine peptide fold change (50 µM): 0.226

LIG4_P49917_20_AASQTSQTVASHVPFADLCSTLER (UniProt P49917)
probe-labelled cysteine peptide fold change (10 µM): -0.176 | probe-labelled cysteine peptide fold change (50 µM): 0.168

LRRC47_Q8N1G4_249_MVSGCQTR (UniProt Q8N1G4)
probe-labelled cysteine peptide fold change (10 µM): -0.124 | probe-labelled cysteine peptide fold change (50 µM): -0.256

LPCAT2_Q7L5N7_223_TTSGGEWPQILVFPEGTCTNR (UniProt Q7L5N7)
probe-labelled cysteine peptide fold change (10 µM): -0.0779 | probe-labelled cysteine peptide fold change (50 µM): -0.245

LMAN2_Q12907_107_SKEGSIWNHQPCFLK (UniProt Q12907)
probe-labelled cysteine peptide fold change (10 µM): -0.308 | probe-labelled cysteine peptide fold change (50 µM): -0.535

LRCH3_Q96II8_277_YLNIQACK (UniProt Q96II8)
probe-labelled cysteine peptide fold change (10 µM): 0.0779 | probe-labelled cysteine peptide fold change (50 µM): -0.276

LIMS1_P48059_219_QWHVEHFVCAK (UniProt P48059)
probe-labelled cysteine peptide fold change (10 µM): -0.107 | probe-labelled cysteine peptide fold change (50 µM): 0.00751

LMO7_Q8WWI1_98_ASLENGVLLCDLINK (UniProt Q8WWI1)
probe-labelled cysteine peptide fold change (10 µM): 0.347 | probe-labelled cysteine peptide fold change (50 µM): -0.154

LPXN_O60711_332_GTLCHGCGQPITGR (UniProt O60711)
probe-labelled cysteine peptide fold change (10 µM): 0.065 | probe-labelled cysteine peptide fold change (50 µM): 0.149

LGALS1_P09382_17_ACGLVASNLNLKPGECLR (UniProt P09382)
probe-labelled cysteine peptide fold change (10 µM): -0.0469 | probe-labelled cysteine peptide fold change (50 µM): -0.0291

LIMD1_Q9UGP4_630_DYHVECYHCEDCGLELNDEDGHR (UniProt Q9UGP4)
probe-labelled cysteine peptide fold change (10 µM): 0.247 | probe-labelled cysteine peptide fold change (50 µM): 0.0861

LPIN3_Q9BQK8_443_SLRDPNPEHEPEPTLDTVDTIALSLCGGLADSR (UniProt Q9BQK8)
probe-labelled cysteine peptide fold change (10 µM): -0.185 | probe-labelled cysteine peptide fold change (50 µM): -0.178

LRSAM1_Q6UWE0_193+205_EVCGAGTAAILQFLCK (UniProt Q6UWE0)
probe-labelled cysteine peptide fold change (10 µM): 0.184 | probe-labelled cysteine peptide fold change (50 µM): 0.0853

LIG4_P49917_593_EWHECMTLDDLEQLR (UniProt P49917)
probe-labelled cysteine peptide fold change (10 µM): -0.157 | probe-labelled cysteine peptide fold change (50 µM): -0.026

LRPPRC_P42704_848_GDLSTALEVAIDCYEK (UniProt P42704)
probe-labelled cysteine peptide fold change (10 µM): -0.0647 | probe-labelled cysteine peptide fold change (50 µM): 0.0882

LPXN_O60711_155_GHCASCQK (UniProt O60711)
probe-labelled cysteine peptide fold change (10 µM): 0.00581 | probe-labelled cysteine peptide fold change (50 µM): 0.145

LRPPRC_P42704_208_LIASYCNVGDIEGASK (UniProt P42704)
probe-labelled cysteine peptide fold change (10 µM): -0.0272 | probe-labelled cysteine peptide fold change (50 µM): 0.141

LRRC42_Q9Y546_151+154_FTEAYGSLVLCSLCLR (UniProt Q9Y546)
probe-labelled cysteine peptide fold change (10 µM): -0.374 | probe-labelled cysteine peptide fold change (50 µM): 0.0723

LSM12_Q3MHD2_151_NIVVMEEVVITPPYQVENCK (UniProt Q3MHD2)
probe-labelled cysteine peptide fold change (10 µM): -0.0712 | probe-labelled cysteine peptide fold change (50 µM): 0.0313

LPXN_O60711_178+181_VIHALGQSWHPEHFVCTHCK (UniProt O60711)
probe-labelled cysteine peptide fold change (10 µM): 0.141 | probe-labelled cysteine peptide fold change (50 µM): -0.186

LIN37_Q96GY3_28_NQLDAVLQCLLEK (UniProt Q96GY3)
probe-labelled cysteine peptide fold change (10 µM): -0.0927 | probe-labelled cysteine peptide fold change (50 µM): -0.121

LRCH4_O75427_571_LQRPLPEDLAEALASGVILCQLANQLRPR (UniProt O75427)
probe-labelled cysteine peptide fold change (10 µM): -0.0878 | probe-labelled cysteine peptide fold change (50 µM): 0.0638

LRRC57_Q8N9N7_82_LTVLPDEICNLK (UniProt Q8N9N7)
probe-labelled cysteine peptide fold change (10 µM): -0.00822 | probe-labelled cysteine peptide fold change (50 µM): -0.083

LIN54_Q6MZP7_729_CLMSVINSAGK (UniProt Q6MZP7)
probe-labelled cysteine peptide fold change (10 µM): 0.0549 | probe-labelled cysteine peptide fold change (50 µM): 0.081

LRCH3_Q96II8_531_QHPLLDGVDGECPFPSR (UniProt Q96II8)
probe-labelled cysteine peptide fold change (10 µM): -0.153 | probe-labelled cysteine peptide fold change (50 µM): -0.145

LRPPRC_P42704_380_EDGPSVFGSFFLQHCVTMNTPVEK (UniProt P42704)
probe-labelled cysteine peptide fold change (10 µM): 0.255 | probe-labelled cysteine peptide fold change (50 µM): 0.117

LIMS1_P48059_281_AWCVNCFACSTCNTK (UniProt P48059)
probe-labelled cysteine peptide fold change (10 µM): 0.0469 | probe-labelled cysteine peptide fold change (50 µM): 0.198

LENG8_Q96PV6_695_ADPCVAHALALR (UniProt Q96PV6)
probe-labelled cysteine peptide fold change (10 µM): -0.0372 | probe-labelled cysteine peptide fold change (50 µM): 0.251

LIMD1_Q9UGP4_305_TPSVSAPLALSCPR (UniProt Q9UGP4)
probe-labelled cysteine peptide fold change (10 µM): -0.0364 | probe-labelled cysteine peptide fold change (50 µM): -0.237

LSP1_P33241_109_QQHEGAQGALDSGEPPQCR (UniProt P33241)
probe-labelled cysteine peptide fold change (10 µM): 0.218 | probe-labelled cysteine peptide fold change (50 µM): -0.0324

LIG1_P18858_508_QTFCEVPDLDRIIPVLLEHGLER (UniProt P18858)
probe-labelled cysteine peptide fold change (10 µM): -0.16 | probe-labelled cysteine peptide fold change (50 µM): -0.134

LGALS9_O00182_312_GQSFSVWILCEAHCLK (UniProt O00182)
probe-labelled cysteine peptide fold change (10 µM): 0.145 | probe-labelled cysteine peptide fold change (50 µM): 0.157

LGALS9_O00182_74_FEDGGYVVCNTR (UniProt O00182)
probe-labelled cysteine peptide fold change (10 µM): 0.1 | probe-labelled cysteine peptide fold change (50 µM): 0.199

LIG3_P49916_729_CAGGHDDATLAR (UniProt P49916)
probe-labelled cysteine peptide fold change (10 µM): 0.0492 | probe-labelled cysteine peptide fold change (50 µM): 0.0111

LPCAT1_Q8NF37_443_MYGAQEDGSVGEGDLSCILK (UniProt Q8NF37)
probe-labelled cysteine peptide fold change (10 µM): 0.114 | probe-labelled cysteine peptide fold change (50 µM): 0.0394

LRRC41_Q15345_123_TRPSSLESVTCWR (UniProt Q15345)
probe-labelled cysteine peptide fold change (10 µM): -0.16 | probe-labelled cysteine peptide fold change (50 µM): 0.158

LRRC58_Q96CX6_131_SLQVLNLSGNCFQEVPASLLELR (UniProt Q96CX6)
probe-labelled cysteine peptide fold change (10 µM): -0.0261 | probe-labelled cysteine peptide fold change (50 µM): -0.0833

LRRFIP1_Q32MZ4_334_DCVDIEVFPAGENTEDQK (UniProt Q32MZ4)
probe-labelled cysteine peptide fold change (10 µM): 0.0101 | probe-labelled cysteine peptide fold change (50 µM): -0.138
